Measured values taken from PubChem BioAssay AID720591 (Broad Institute, 2013).
In all, about 1,200 compounds went through this assay and about 60 (5%) were called active. Not shown: some 1% with an inconclusive outcome.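 Rule for the calls: active = Decreasing signal and fitted IC50 at most twice the top valid tested dose; inconclusive = Bad fit or a level curve showing 30 to 70% inhibition; inactive = the rest.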 This is one part of the list. Potency and affinity values are given separately.

By UniProt entry, the sequences of proteins in these tests, tags left out. Where a name states a change or a piece, a line headed by the entry shows the natural chain unless it says otherwise.
UniProt Q9NXA8: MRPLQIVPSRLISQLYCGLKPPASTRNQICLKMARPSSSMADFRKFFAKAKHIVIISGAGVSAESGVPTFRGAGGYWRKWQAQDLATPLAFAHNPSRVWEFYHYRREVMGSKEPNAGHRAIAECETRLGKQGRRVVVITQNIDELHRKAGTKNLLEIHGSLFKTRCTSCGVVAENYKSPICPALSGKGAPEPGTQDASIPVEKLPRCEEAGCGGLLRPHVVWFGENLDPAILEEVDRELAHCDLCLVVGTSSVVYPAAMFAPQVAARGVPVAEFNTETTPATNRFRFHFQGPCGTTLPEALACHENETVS

Each compound was assayed against NAD-dependent protein deacylase sirtuin-5, mitochondrial (Homo sapiens) (UniProt Q9NXA8) (assay: SIRT5 desuccinylase inhibitors, dose response, biochemical, fluorescence imaging, cherry-pick, set 5 (AID 720591;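 note: 0% = median of neutral control wells and -100% = median of positive control wells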)). Details: Purified SirT5, succinyl-peptide AMC, trypsin-coupled fluorescence; at 15 µM (top of the series) unless noted.

Activity change, negative = inhibition, inactive:
CCOC(=O)CSc1nc2cc(OCC)ccc2cc1C#N -25.9%
O=C(NCc1ccncc1)c1nc(-c2ccc(C(F)(F)F)cc2)no1 -5.2%
CC(C)OC(=O)c1cccc(C(=O)O)n1 -29.2%
COc1ccc(CNC(=O)CCn2ccc3cc(S(=O)(=O)N4CCCC4)ccc32)cc1 -22.9%
Cc1ccccc1CNC(=O)Cn1ccc2cc(S(=O)(=O)N3CCCCCC3)ccc21 4.05%
O=S(=O)(Nc1ncccn1)c1ccc(Cl)cc1 17.2%
O=C(CSc1nnc(-c2ccco2)n1-c1ccccc1)NCCc1ccccc1 35.8%
O=S(=O)(NCc1ccc2c(c1)OCO2)c1ccccc1F 4.96%
COCCNC(=O)C(c1ccc(F)cc1)N(Cc1ccco1)C(=O)CCC(=O)Nc1ccccn1 (stereo not given) 4.45%
O=C(c1cc(COc2ccc(F)cc2Cl)on1)N1CC[C@@H]2CCCC[C@H]2C1 -20.1%
O=C(Nc1nc(-c2ccc(Cl)cc2Cl)cs1)c1ccc(OCC2CCCO2)cc1 (stereo not given) 1.14%
Cc1ccccc1C(=O)N1c2ccccc2OCC1C(C)(C)C (stereo not given) -31.7%
O=C(NNc1ccccc1C(F)(F)F)c1sccc1Br -31.3%
COc1ccccc1C(=O)NCCC(=O)Nc1ccc(OC(F)(F)F)cc1 -3.84%
Fc1ccc(CNC2CCN(Cc3ccccc3)CC2)cc1 -18.3%
O=C(Nc1ccccc1Cl)c1cccs1 -20.1%
Cc1ccc(CNc2nc(NC(C)C)nc3ccsc23)c(C)c1 -0.124%
Cn1c(SCc2nc(-c3ccc(Cl)cc3)no2)nnc1-c1cccs1 -25.4%
C#CC1(NC(=O)NC(C)C)CCCCC1 36.4%
CN(C)CCCN(C(=O)c1ccco1)c1nc2ccc(F)cc2s1 42.9%
CO/N=C(\C(=O)N[C@@H]1C(=O)N2C(C(=O)O)=C(COC(C)=O)CS[C@H]12)c1csc(N)n1 (stereo in doubt) -15.9%
O=S1(=O)CC(N2CCCC2)CN1Cc1cn(Cc2ccccc2)nn1 (stereo not given) -2.42%
Cn1ccnc1SC(C(=O)O)c1ccccc1 (stereo not given) -10.4%
O=C(Nc1ccccc1F)c1cc2c(s1)-c1ccccc1S(=O)(=O)C2 -14.1%
Cc1sc(NC(=O)Cn2[nH]c(=O)c3ccccc3c2=O)nc1-c1ccccc1 -2.7%
C[C@H]1COc2cc(NCCO)ccc2S(=O)(=O)N1 19.8%
CC(C)N1CCN(Cc2cnc(-c3ccccc3)s2)CC1CCO (stereo not given) 35.2%
Cn1cnnc1SCC(=O)Nc1ccc2ccccc2c1 2.92%
O=C1CC(N2CCC(c3nc4ccccc4[nH]3)CC2)C(=O)N1c1ccccc1F (stereo not given) 4.09%
Cc1cc(C)c(NC(=O)C2CCN(C(=O)c3ccco3)CC2)c(C)c1 -25.5%
NC(=O)C1Cc2ccccc2CN1C(=O)c1cc(C2CC2)nn1-c1ccccc1 (stereo not given) -10.6%
CC(C)(C)NC(=O)C(c1ccccn1)N(C(=O)c1csnn1)C1CCCC1 (stereo not given) -0.148%
O=C(CSc1nnc(-c2ccco2)n1-c1ccccc1)NCc1ccco1 15.6%
COCCCNC(=O)c1ccc(CN2CCc3ccccc3C2)cc1 -25.4%
CC1COc2ccccc2N1C(=O)c1ccc(F)cc1 (stereo not given) 2.89%
C=C(C)COc1ccc(-c2ncncc2-c2ccc(OC)cc2)c(O)c1 4.58%
Cc1ccc(C(=O)NC2CCCc3c2cnn3-c2ccc(F)cc2F)cn1 (stereo not given) 36.6%
COc1ccc(-c2noc(Cn3cc(S(=O)(=O)N4CCCC4)ccc3=O)n2)cc1 -33.5%
CC(C)N(C(=O)[C@H]1C[C@H](CC(=O)NC(C)(C)C)C(=O)N2CCc3c([nH]c4cc(-c5ccco5)ccc34)[C@]12C)C(C)C 9.87%
CC(C)NC(=O)C(c1ccc(F)cc1)N(Cc1ccco1)C(=O)CCC(=O)Nc1ccccn1 (stereo not given) 8.91%
O=C(COC(=O)c1cc(=O)[nH]c2ccccc12)NC1CCCC1 19.9%
Cc1oc2ccc(NS(=O)(=O)c3ccccc3)cc2c1C(=O)Nc1ccccc1 1.52%
CC1CCCN(CCOCCSc2ccccc2)C1 (stereo not given) 0.132%
CCN(C[C@H]1N[C@@](C)(C(=O)OC)[C@H]2C(=O)N(C)C(=O)[C@@H]12)C(=O)c1ccc(F)cc1 -17.1%
Cc1cc(C)cc(NC(=O)CSc2ccc(-c3cccs3)nn2)c1 4.74%
Cc1cc(CNC(=O)CC2C(=O)NCCN2Cc2ccccc2C(F)(F)F)on1 (stereo not given) 4.9%
COc1ccccc1CNS(=O)(=O)c1cccs1 2.11%
O=C(NCCc1ccccc1)C1c2ccccc2C(=O)N1Cc1cccs1 (stereo not given) 10.5% [at 7.5 µM]
Cc1ccc(S(=O)(=O)N2CCCCC2)cc1NC(=O)COC(=O)CN1C(=O)NC2(CC(C)CC(C)(C)C2)C1=O (stereo not given) 0.355%
COc1cc(Cl)c(CN2CCCC(CO)(Cc3ccccc3F)C2)cc1OC (stereo not given) 8.36%
Cn1ncc2c(Nc3cc(Cl)cc(Cl)c3)ncnc21 -24.3%
O=C(c1ccco1)N1CCCN(Cc2nc(-c3cccs3)no2)CC1 0.286%
Cc1ccc(Cl)cc1N(C(=O)c1csnn1)C(C(=O)NC1CCCC1)c1ccco1 (stereo not given) 16.8%
Cc1ccc(S(=O)(=O)c2ccc(-n3nc(C)cc3N)cc2)cc1 2.99%
COc1cc(C)c(CN2CCN(C(=O)CCC(=O)c3ccc(C)s3)CC2)cc1OC 16.3%
O=C(O)c1cc(N2C(=O)C3CCCCC3C2=O)ccc1NCc1cccnc1 (stereo not given) 17.6%
CCCNC(=O)C1(C)CCCN(C(=O)C2(c3ccc(Cl)cc3)CCCC2)C1 (stereo not given) 14.6%
COCCNC(=O)c1onc(CSc2cccc(OC)c2)c1C(=O)NCCOC -16.5%
CC1(C)N=C(N)NC(Nc2ccc(Cl)cc2)=N1 6.94%
Cc1nc(-c2ccccc2)sc1C(=O)NS(=O)(=O)c1ccc(CN2CCN(c3ccccc3)CC2)cc1 -16.5%
CC(=O)c1ccc(OCCCC(=O)Nc2ccc3c(c2)OCCO3)cc1 -29.6%
O=C(NC1CCCC1)C(c1ccco1)N(C(=O)c1csnn1)c1ccccc1 (stereo not given) -11.2%
Cc1cccc(Cl)c1NC(=O)NCCCN1CCCCC1C (stereo not given) -21.1%
C[C@H]1CN([C@@H](C)CO)C(=O)c2cc(NC(=O)C3CCCCC3)ccc2O[C@H]1CN(C)Cc1ccc(-c2ccccc2)cc1 -24.1%
O=C1CCC(C(=O)N2CCCCCC2)CN1Cc1cccc(C(F)(F)F)c1 (stereo not given) -29.3%
O=C(Nc1ccccc1)C1CCN(C(=O)c2ccco2)CC1 -31.6%
CCn1cc(C(=O)OC)c(=O)c2cc(S(=O)(=O)N(C)C3CCCCC3)ccc21 -15.6%
FC(F)(F)c1ccc(Oc2ccc3ccccc3c2Br)nc1 24.9%
C#CC1(NC(=O)N(C)C)CCCCC1 -17.5%
Cc1ccc(C(=O)NCC(=O)NCc2cc(=O)n(C)c(=O)n2C)cc1 -29.1%
O=C1CN(C(=O)COc2cccc(F)c2)c2ccccc2N1 3.25%
C[C@@H]1CN([C@@H](C)CO)C(=O)CCCn2nncc2CO[C@H]1CN(C)C(=O)C1CCCCC1 -4.24%
Cc1sc2nc(N3CCOCC3)[nH]c(=O)c2c1-c1ccccc1 -15.5%
CCN1CCN(C(=O)CN(CC)S(=O)(=O)c2ccc3ccccc3c2)CC1 -19%
Clc1ccc(SCc2cn3ccccc3n2)cc1 -21.3%
Cc1ccc(CNC(=O)CNC(=O)[C@@H]2Cc3ccccc3CN2)cc1 9.5%
Cc1ccc(-n2nc(C)c3c(C)cc(=O)[nH]c32)cc1 23%
COc1ccc(S(=O)(=O)N2CCCCC2)cc1NC(=O)CNc1ccccc1N1CCCC1=O -11.2%
CN(C)CCOC(=O)NCC12CC3CC(CC(C3)C1)C2 -14.8%
Cc1cc(NC(=O)CCC(=O)N(Cc2ccc(F)cc2)C(C(=O)NC2CCCC2)c2ccco2)no1 (stereo not given) 12.4%
COc1ccc(CCN(Cc2cc3ccc(C)cc3n3nnnc23)C(C)=O)cc1OC 11.4%
O=C(CN1C(=O)NC2(CCCC2)C1=O)Nc1ccc(S(=O)(=O)N2CCOCC2)cc1 10.3%
Cc1ccc(S(=O)(=O)N2C[C@H]3n4c(=O)ccc(=O)n4C[C@H](OC(=O)NCc4ccco4)[C@@]3(O)C2)cc1 -5.38%
CCCn1cc(S(=O)(=O)c2ccc(C)cc2)c(=O)c2cc(OC)c(OC)cc21 0.014%
CC1=C(C(=O)N2CCOCC2)CC(CC(=O)NCC2CCCCC2)C(=O)N1CCC1=CCCCC1 (stereo not given) 31.4%
O=C(c1ccccc1)c1coc2ccc(O)c(Cl)c12 -19.4%
Cc1ccc(C(=O)NCCC(=O)N2CCC3(CC2)NCCc2[nH]cnc23)cc1C -28.5%
CC(C)(CO)CNC(=O)CCc1nnc(Cc2ccc(-c3ccccc3)cc2)o1 -22.7%
COc1ccc(CNC(=O)C(c2ccco2)N(C(=O)Cc2cccs2)c2cccnc2)cc1 (stereo not given) 1.51%
CCCCCNC(=O)C(c1cc2ccccc2o1)n1c(=O)c(-c2ccccc2)nc2ccccc21 (stereo not given) -20.3%

Compounds from the list above that have a COOH group:
Activity change, negative = inhibition, inactive:
CC(C)OC(=O)c1cccc(C(=O)O)n1 -29.2%
CO/N=C(\C(=O)N[C@@H]1C(=O)N2C(C(=O)O)=C(COC(C)=O)CS[C@H]12)c1csc(N)n1 (stereo in doubt) -15.9%
Cn1ccnc1SC(C(=O)O)c1ccccc1 (stereo not given) -10.4%
O=C(O)c1cc(N2C(=O)C3CCCCC3C2=O)ccc1NCc1cccnc1 (stereo not given) 17.6%
